These are yes or no findings as the source states them, for the method shown. In cells and extracts the contact can be indirect. Some entries that bind do so weakly or less than the wild type. For part of these data: Tags and fused reporters may be left off the sequences shown.

Chains of the proteins cited; added tags and fusions are not shown.
UniProt P11387: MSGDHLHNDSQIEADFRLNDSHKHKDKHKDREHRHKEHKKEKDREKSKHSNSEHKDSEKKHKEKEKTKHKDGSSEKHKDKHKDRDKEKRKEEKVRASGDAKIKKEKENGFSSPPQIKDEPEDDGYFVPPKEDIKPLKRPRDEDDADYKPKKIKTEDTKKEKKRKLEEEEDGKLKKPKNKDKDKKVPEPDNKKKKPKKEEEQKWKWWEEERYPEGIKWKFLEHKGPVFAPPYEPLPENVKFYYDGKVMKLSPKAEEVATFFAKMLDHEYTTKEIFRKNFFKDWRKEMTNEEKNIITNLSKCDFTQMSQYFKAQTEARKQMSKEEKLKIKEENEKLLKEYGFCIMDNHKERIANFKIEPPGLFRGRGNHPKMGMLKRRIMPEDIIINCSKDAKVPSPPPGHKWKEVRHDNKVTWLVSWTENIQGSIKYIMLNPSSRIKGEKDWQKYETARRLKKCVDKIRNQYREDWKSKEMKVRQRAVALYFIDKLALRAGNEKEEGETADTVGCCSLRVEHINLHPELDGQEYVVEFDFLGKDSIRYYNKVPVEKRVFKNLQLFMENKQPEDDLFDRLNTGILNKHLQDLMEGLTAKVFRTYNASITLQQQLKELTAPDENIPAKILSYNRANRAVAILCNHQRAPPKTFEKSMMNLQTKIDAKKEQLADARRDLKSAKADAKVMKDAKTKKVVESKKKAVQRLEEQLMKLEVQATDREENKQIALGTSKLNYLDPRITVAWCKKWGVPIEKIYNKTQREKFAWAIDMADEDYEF
UniProt P19338: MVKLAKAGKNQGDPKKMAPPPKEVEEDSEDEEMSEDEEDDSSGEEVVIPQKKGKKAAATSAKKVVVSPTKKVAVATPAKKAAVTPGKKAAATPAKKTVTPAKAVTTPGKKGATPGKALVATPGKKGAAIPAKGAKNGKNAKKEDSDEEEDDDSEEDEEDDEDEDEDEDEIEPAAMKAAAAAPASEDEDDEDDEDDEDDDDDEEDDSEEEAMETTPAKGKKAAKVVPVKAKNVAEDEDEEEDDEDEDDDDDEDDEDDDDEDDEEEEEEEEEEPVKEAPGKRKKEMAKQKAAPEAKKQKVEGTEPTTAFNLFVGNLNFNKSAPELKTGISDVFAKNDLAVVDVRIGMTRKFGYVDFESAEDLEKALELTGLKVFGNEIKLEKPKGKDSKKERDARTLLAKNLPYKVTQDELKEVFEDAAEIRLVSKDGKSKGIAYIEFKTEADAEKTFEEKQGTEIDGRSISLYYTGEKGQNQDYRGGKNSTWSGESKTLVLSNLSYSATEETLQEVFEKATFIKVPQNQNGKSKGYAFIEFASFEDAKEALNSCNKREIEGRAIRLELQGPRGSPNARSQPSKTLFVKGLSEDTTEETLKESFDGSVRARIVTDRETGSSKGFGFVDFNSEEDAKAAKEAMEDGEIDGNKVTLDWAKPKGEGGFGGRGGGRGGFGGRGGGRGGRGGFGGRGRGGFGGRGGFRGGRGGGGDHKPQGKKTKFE

Two molecules from publication PMC2766071 can be followed below.

In assay [1] the target is Flag-tagged DNA topoisomerase 1 (TOP1) (human (cDNA from OL cells)) (UniProt P11387). Nature of the assay: co-IP; OL cells transfected with Flag-tagged UBP plasmids (10 ug); lysed in RIPA buffer; anti-Flag M2 agarose overnight at 4 C, eluted with 3xFlag peptide; blot for endogenous DDX21 or nucleolin.
For assay [2], the target named is Flag-tagged nucleolin (human (cDNA from OL cells)) (UniProt P19338). The description is as above.
Assay [3] has as its target T1, Flag-tagged hnRNPQ1 (human (cDNA from OL cells)) (UniProt O60506).
T1 sequence: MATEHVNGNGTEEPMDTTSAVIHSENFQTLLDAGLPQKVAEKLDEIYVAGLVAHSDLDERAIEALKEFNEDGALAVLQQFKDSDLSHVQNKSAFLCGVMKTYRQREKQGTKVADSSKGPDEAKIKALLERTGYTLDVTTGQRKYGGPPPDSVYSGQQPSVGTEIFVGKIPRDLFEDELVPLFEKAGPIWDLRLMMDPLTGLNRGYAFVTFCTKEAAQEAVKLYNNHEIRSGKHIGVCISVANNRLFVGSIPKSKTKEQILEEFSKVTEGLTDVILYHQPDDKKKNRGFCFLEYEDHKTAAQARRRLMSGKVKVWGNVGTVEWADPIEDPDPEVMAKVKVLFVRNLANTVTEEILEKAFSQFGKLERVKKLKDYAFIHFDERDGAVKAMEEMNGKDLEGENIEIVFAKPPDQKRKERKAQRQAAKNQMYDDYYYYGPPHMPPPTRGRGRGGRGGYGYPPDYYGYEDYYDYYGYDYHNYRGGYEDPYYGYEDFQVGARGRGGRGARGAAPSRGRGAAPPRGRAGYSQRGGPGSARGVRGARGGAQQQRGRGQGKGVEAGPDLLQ
The assay can be described thus: co-IP; OL cells co-transfected with Flag-tagged and HA-tagged UBP plasmids (5 ug each), 36 h; lysates immunoprecipitated with anti-FLAG antibody; blot with anti-HA.

B1: endogenous DDX21 (protein, UniProt Q9NR30 1-783)
chain: MPGKLRSDAGLESDTAMKKGETLRKQTEEKEKKEKPKSDKTEEIAEEEETVFPKAKQVKKKAEPSEVDMNSPKSKKAKKKEEPSQNDISPKTKSLRKKKEPIEKKVVSSKTKKVTKNEEPSEEEIDAPKPKKMKKEKEMNGETREKSPKLKNGFPHPEPDCNPSEAASEESNSEIEQEIPVEQKEGAFSNFPISEETIKLLKGRGVTFLFPIQAKTFHHVYSGKDLIAQARTGTGKTFSFAIPLIEKLHGELQDRKRGRAPQVLVLAPTRELANQVSKDFSDITKKLSVACFYGGTPYGGQFERMRNGIDILVGTPGRIKDHIQNGKLDLTKLKHVVLDEVDQMLDMGFADQVEEILSVAYKKDSEDNPQTLLFSATCPHWVFNVAKKYMKSTYEQVDLIGKKTQKTAITVEHLAIKCHWTQRAAVIGDVIRVYSGHQGRTIIFCETKKEAQELSQNSAIKQDAQSLHGDIPQKQREITLKGFRNGSFGVLVATNVAARGLDIPEVDLVIQSSPPKDVESYIHRSGRTGRAGRTGVCICFYQHKEEYQLVQVEQKAGIKFKRIGVPSATEIIKASSKDAIRLLDSVPPTAISHFKQSAEKLIEEKGAVEALAAALAHISGATSVDQRSLINSNVGFVTMILQCSIEMPNISYAWKELKEQLGEEIDSKVKGMVFLKGKLGVCFDVPTASVTEIQEKWHDSRRWQLSVATEQPELEGPREGYGGFRGQREGSRGFRGQRDGNRRFRGQREGSRGPRGQRSGGGNKSNRSQNKGQKRSFSKAFGQ
On to B1, for which the binding entry in assay [1] and in assay [2] was “binds” throughout.

B2: HA-tagged DDX21 (protein, UniProt Q9NR30 1-783)
chain: MPGKLRSDAGLESDTAMKKGETLRKQTEEKEKKEKPKSDKTEEIAEEEETVFPKAKQVKKKAEPSEVDMNSPKSKKAKKKEEPSQNDISPKTKSLRKKKEPIEKKVVSSKTKKVTKNEEPSEEEIDAPKPKKMKKEKEMNGETREKSPKLKNGFPHPEPDCNPSEAASEESNSEIEQEIPVEQKEGAFSNFPISEETIKLLKGRGVTFLFPIQAKTFHHVYSGKDLIAQARTGTGKTFSFAIPLIEKLHGELQDRKRGRAPQVLVLAPTRELANQVSKDFSDITKKLSVACFYGGTPYGGQFERMRNGIDILVGTPGRIKDHIQNGKLDLTKLKHVVLDEVDQMLDMGFADQVEEILSVAYKKDSEDNPQTLLFSATCPHWVFNVAKKYMKSTYEQVDLIGKKTQKTAITVEHLAIKCHWTQRAAVIGDVIRVYSGHQGRTIIFCETKKEAQELSQNSAIKQDAQSLHGDIPQKQREITLKGFRNGSFGVLVATNVAARGLDIPEVDLVIQSSPPKDVESYIHRSGRTGRAGRTGVCICFYQHKEEYQLVQVEQKAGIKFKRIGVPSATEIIKASSKDAIRLLDSVPPTAISHFKQSAEKLIEEKGAVEALAAALAHISGATSVDQRSLINSNVGFVTMILQCSIEMPNISYAWKELKEQLGEEIDSKVKGMVFLKGKLGVCFDVPTASVTEIQEKWHDSRRWQLSVATEQPELEGPREGYGGFRGQREGSRGFRGQRDGNRRFRGQREGSRGPRGQRSGGGNKSNRSQNKGQKRSFSKAFGQ
With B2, in assay [3], the binding entry was “binds”.
